Measured values as given in publication doi:10.1101/2025.06.03.657556.
No constants are given. Whether binding was seen depends on the method and setting. In cells and extracts the contact can be indirect. Some results given as binding are weak or reduced against the parent protein; the word gives no strength.

The chains behind the UniProt entries cited, without tags or fusion partners.
UniProt P61586: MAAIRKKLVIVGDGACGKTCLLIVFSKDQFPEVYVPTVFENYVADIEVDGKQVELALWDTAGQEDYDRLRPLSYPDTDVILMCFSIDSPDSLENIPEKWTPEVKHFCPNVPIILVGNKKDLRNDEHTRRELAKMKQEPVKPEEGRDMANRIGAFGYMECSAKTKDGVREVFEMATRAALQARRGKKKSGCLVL

Target: Ras homolog gene family member A (RhoA) (human (endogenous in HEK 293F)) (UniProt P61586)
Assay: proximity ligation

- binding: binds
B1: RhoGDIα (protein, UniProt P52565 1-204)
chain: MAEQEPTAEQLAQIAAENEEDEHSVNYKPPAQKSIQEIQELDKDDESLRKYKEALLGRVAVSADPNVPNVVVTGLTLVCSSAPGPLELDLTGDLESFKKQSFVLKEGVEYRIKISFRVNREIVSGMKYIQHTYRKGVKIDKTDYMVGSYGPRAEEYEFLTPVEEAPKGMLARGSYSIKSRFTDDDKTDHLSWEWNLTIKKDWKD
